# Source: patent US20250084044A1, “PROTOPORPHYRINOGEN OXIDASE INHIBITORS” (Enko Chem, Inc., priority 2022, published 2025)
# Some entries share one result that the patent states for a list of compounds.
# Molecular target: T1, mutant ΔG210-AmPPO (Amaranthus tuberculatus, UniProt Q0NZW9, DEL211-211, form not given)
# T1 sequence (Q0NZW9 with tags, fused parts or gaps DEL211-211): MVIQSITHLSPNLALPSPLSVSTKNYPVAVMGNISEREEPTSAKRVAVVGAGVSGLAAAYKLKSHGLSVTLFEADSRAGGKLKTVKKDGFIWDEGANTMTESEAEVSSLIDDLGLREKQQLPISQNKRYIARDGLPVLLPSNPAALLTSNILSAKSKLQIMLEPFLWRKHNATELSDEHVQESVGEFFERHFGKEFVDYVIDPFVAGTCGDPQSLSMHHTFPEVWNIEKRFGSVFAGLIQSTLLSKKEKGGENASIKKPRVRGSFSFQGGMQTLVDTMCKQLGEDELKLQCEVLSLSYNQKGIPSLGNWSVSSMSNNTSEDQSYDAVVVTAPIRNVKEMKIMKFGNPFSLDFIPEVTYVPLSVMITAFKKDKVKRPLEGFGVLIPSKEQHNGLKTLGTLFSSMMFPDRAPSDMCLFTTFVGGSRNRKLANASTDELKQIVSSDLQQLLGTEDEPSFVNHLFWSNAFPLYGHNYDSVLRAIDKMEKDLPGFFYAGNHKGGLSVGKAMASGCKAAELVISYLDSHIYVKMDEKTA
# Assay type: biochemical, Amaranthus tuberculantum
# Conditions: Example 17b; read-out: IC50 in the AG210 PPO in vitro assay
row,SMILES,IC50 [nM]
1,"CC[C@H](C(=O)OC)N1C(=O)C(F)(F)Oc2cc(F)c(-c3c(F)c(F)c(F)c(F)c3F)cc21 [Compound 50, methyl (R)-2-(2,2,7-trifluoro-3-oxo-6-(perfluorophenyl)-2,3-dihydro-4H-benzo[b][1,4]oxazin-4-yl)butanoate]",< 100
2,"CC[C@@H](C(=O)O)N1C(=O)C(F)(F)Oc2cc(F)c(-c3c(F)c(F)c(F)c(F)c3F)cc21 [Compound 51, (S)-2-(2,2,7-trifluoro-3-oxo-6-(perfluorophenyl)-2,3-dihydro-4H-benzo[b][1,4]oxazin-4-yl)butanoic acid]",< 1000
3,"COC(=O)c1cccc(CN2C(=O)C(F)(F)Oc3cc(F)c(-c4c(F)c(F)c(F)c(F)c4F)cc32)c1F [Compound 53, methyl 2-fluoro-3-((2,2,7-trifluoro-3-oxo-6-(perfluorophenyl)-2,3-dihydro-4H-benzo[b][1,4]oxazin-4-yl)methyl)benzoate]",< 100
4,"O=C(O)c1cccc(CN2C(=O)C(F)(F)Oc3cc(F)c(-c4c(F)c(F)c(F)c(F)c4F)cc32)c1F [Compound 54, 2-fluoro-3-((2,2,7-trifluoro-3-oxo-6-(perfluorophenyl)-2,3-dihydro-4H-benzo[b][1,4]oxazin-4-yl)methyl)benzoic acid]",< 1000
5,"COC(=O)c1cccc(N2C(=O)C(F)(F)Oc3cc(F)c(-c4c(F)c(F)c(F)c(F)c4F)cc32)c1 [Compound 55, methyl 3-(2,2,7-trifluoro-3-oxo-6-(perfluorophenyl)-2,3-dihydro-H-benzo[b][1,4]oxazin-4-yl)benzoate]",< 1000
6,"O=C(O)c1cccc(N2C(=O)C(F)(F)Oc3cc(F)c(-c4c(F)c(F)c(F)c(F)c4F)cc32)c1 [Compound 56, 3-(2,2,7-trifluoro-3-oxo-6-(perfluorophenyl)-2,3-dihydro-4H-benzo[b][1,4]oxazin-4-yl)benzoic acid]",< 100
7,"CN(C)NC(=O)CN1C(=O)C(F)(F)Oc2cc(F)c(-c3c(F)c(F)c(F)c(F)c3F)cc21 [Compound 57, N,N-dimethyl-2-(2,2,7-trifluoro-3-oxo-6-(perfluorophenyl)-2,3-dihydro-4H-benzo[b][1,4]oxazin-4-yl)acetohydrazide]",< 1000
8,"CONC(=O)CN1C(=O)C(F)(F)Oc2cc(F)c(-c3c(F)c(F)c(F)c(F)c3F)cc21 [Compound 58, N-methoxy-2-(2,2,7-trifluoro-3-oxo-6-(perfluorophenyl)-2,3-dihydro-H-benzo[b][1,4]oxazin-4-yl)acetamide]",< 1000
9,"CNNC(=O)CN1C(=O)C(F)(F)Oc2cc(F)c(-c3c(F)c(F)c(F)c(F)c3F)cc21 [Compound 59, N′-methyl-2-(2,2,7-trifluoro-3-oxo-6-(perfluorophenyl)-2,3-dihydro-4H-benzo[b][1,4]oxazin-4-yl)acetohydrazide]",< 1000
10,"COC(=O)CN1C(=O)C(F)(F)Oc2cc(F)c(-c3c(F)c(C)c(F)c(F)c3F)cc21 [Compound 60, methyl 2-(2,2,7-trifluoro-3-oxo-6-(2,3,4,6-tetrafluoro-5-methylphenyl)-2,3-dihydro-4H-benzo[b][1,4]oxazin-4-yl)acetate]",< 1000
11,"COC(=O)CN1C(=O)C(F)(F)Oc2cc(F)c(-c3c(F)c(F)c(C(F)(F)F)c(F)c3F)cc21 [Compound 62, methyl 2-(2,2,7-trifluoro-3-oxo-6-(2,3,5,6-tetrafluoro-4-(trifluoromethyl)phenyl)-2,3-dihydro-4H-benzo[b][1,4]oxazin-4-yl)acetate]",< 100
12,"O=C(O)CN1C(=O)C(F)(F)Oc2cc(F)c(-c3c(F)c(F)c(C(F)(F)F)c(F)c3F)cc21 [Compound 63, 2-(2,2,7-trifluoro-3-oxo-6-(2,3,5,6-tetrafluoro-4-(trifluoromethyl)phenyl)-2,3-dihydro-4H-benzo[b][1,4]oxazin-4-yl)acetic acid]",< 1000
13,"COC(=O)CN1C(=O)C(F)(F)Oc2cc(F)c(-c3c(F)cc(F)c(F)c3F)cc21 [Compound 64, methyl 2-(2,2,7-trifluoro-3-oxo-6-(2,3,4,6-tetrafluorophenyl)-2,3-dihydro-4H-benzo[b][1,4]oxazin-4-yl)acetate]",< 100
14,"COC(=O)[C@H](C)N1C(=O)C(F)(F)Oc2cc(F)c(-c3c(F)c(F)cc(F)c3F)cc21 [Compound 66, methyl (S)-2-(2,2,7-trifluoro-3-oxo-6-(2,3,5,6-tetrafluorophenyl)-2,3-dihydro-4H-benzo[b][1,4]oxazin-4-yl)propanoate]",< 100
15,"COC(=O)[C@@H](C)N1C(=O)C(F)(F)Oc2cc(F)c(-c3c(F)c(F)cc(F)c3F)cc21 [Compound 67, methyl (R)-2-(2,2,7-trifluoro-3-oxo-6-(2,3,5,6-tetrafluorophenyl)-2,3-dihydro-4H-benzo[b][1,4]oxazin-4-yl)propanoate]",< 1000
16,"C[C@@H](C(=O)O)N1C(=O)C(F)(F)Oc2cc(F)c(-c3c(F)c(F)cc(F)c3F)cc21 [Compound 68, (S)-2-(2,2,7-trifluoro-3-oxo-6-(2,3,5,6-tetrafluorophenyl)-2,3-dihydro-4H-benzo[b][1,4]oxazin-4-yl)propanoic acid]",< 1000
17,"O=C(CN1C(=O)C(F)(F)Oc2cc(F)c(-c3c(F)c(F)c(F)c(F)c3F)cc21)NOCc1ccccc1 [Compound 70, N-(benzyloxy)-2-(2,2,7-trifluoro-3-oxo-6-(perfluorophenyl)-2,3-dihydro-4H-benzo[b][1,4]oxazin-4-yl)acetamide]",< 100
18,"O=C(CN1C(=O)C(F)(F)Oc2cc(F)c(-c3c(F)c(F)c(F)c(F)c3F)cc21)NO [Compound 71, N-hydroxy-2-(2,2,7-trifluoro-3-oxo-6-(perfluorophenyl)-2,3-dihydro-4H-benzo[b][1,4]oxazin-4-yl)acetamide]",< 1000
19,"COC(=O)[C@H]1CCCN1C(=O)CN1C(=O)C(F)(F)Oc2cc(F)c(-c3c(F)c(F)c(F)c(F)c3F)cc21 [Compound 72, methyl (2-(2,2,7-trifluoro-3-oxo-6-(perfluomphenyl)-2,3-dihydro-4H-benzo[b][1,4]oxazin-4-yl)acetyl)-D-prolinate]",< 1000
20,"O=C(O)[C@H]1CCCN1C(=O)CN1C(=O)C(F)(F)Oc2cc(F)c(-c3c(F)c(F)c(F)c(F)c3F)cc21 [Compound 73, (2-(2,2,7-trifluoro-3-oxo-6-(perfluorophenyl)-2,3-dihydro-4H-benzo[b][1,4]oxazin-4-yl)acetyl)-D-proline]",< 1000
21,"COC(=O)[C@@H]1CCCN1C(=O)CN1C(=O)C(F)(F)Oc2cc(F)c(-c3c(F)c(F)c(F)c(F)c3F)cc21 [Compound 74, methyl (2-(2,2,7-trifluoro-3-oxo-6-(perfluorophenyl)-2,3-dihydro-4H-benzo[b][1,4]oxazin-4-yl)acetyl)-L-prolinate]",< 1000
22,"O=C(O)[C@@H]1CCCN1C(=O)CN1C(=O)C(F)(F)Oc2cc(F)c(-c3c(F)c(F)c(F)c(F)c3F)cc21 [Compound 75, (2-(2,2,7-trifluoro-3-oxo-6-(perfluorophenyl)-2,3-dihydro-4H-benzo[b II 1,4]oxazin-4-yl)acetyl)-L-proline]",< 1000
23,"COC(=O)[C@H](C)N1C(=O)C(F)(F)Oc2cc(F)c(-c3c(F)cc(F)c(F)c3F)cc21 [Compound 76, methyl (2S)-2-(2,2,7-trifluoro-3-oxo-6-(2,3,4,6-tetrafluorophenyl)-2,3-dihydro-4H-benzo[b][1,4]oxazin-4-yl)propanoate]",< 100
24,"COC(=O)[C@@H](C)N1C(=O)C(F)(F)Oc2cc(F)c(-c3c(F)cc(F)c(F)c3F)cc21 [Compound 77, methyl (2R)-2-(2,2,7-trifluoro-3-oxo-6-(2,3,4,6-tetrafluorophenyl)-2,3-dihydro-4H-benzo[b][1,4]oxazin-4-yl)propanoate]",< 100
25,"C[C@@H](C(=O)O)N1C(=O)C(F)(F)Oc2cc(F)c(-c3c(F)cc(F)c(F)c3F)cc21 [Compound 78, (2S)-2-(2,2,7-trifluoro-3-oxo-6-(2,3,4,6-tetrafluorophenyl)-2,3-dihydro-4H-benzo[b][1,4]oxazin-4-yl)propanoic acid]",< 1000
26,"C[C@H](C(=O)O)N1C(=O)C(F)(F)Oc2cc(F)c(-c3c(F)cc(F)c(F)c3F)cc21 [Compound 79, (2R)-2-(2,2,7-trifluoro-3-oxo-6-(2,3,4,6-tetrafluorophenyl)-2,3-dihydro-H-benzo[b][1,4]oxazin-4-yl)propanoic acid]",< 1000
27,"COC(=O)CCN(C)C(=O)CN1C(=O)C(F)(F)Oc2cc(F)c(-c3c(F)c(F)c(F)c(F)c3F)cc21 [Compound 80, methyl 3-(N-methyl-2-(2,2,7-trifluoro-3-oxo-6-(perfluorophenyl)-2,3-dihydro-4H-benzo[b][1,4]oxazin-4-yl)acetamido)propanoate]",< 100
28,"CN(CCC(=O)O)C(=O)CN1C(=O)C(F)(F)Oc2cc(F)c(-c3c(F)c(F)c(F)c(F)c3F)cc21 [Compound 81, 3-(N-methyl-2-(2,2,7-trifluoro-3-oxo-6-(perfluorophenyl)-2,3-dihydro-H-benzo[b][1,4]oxazin-4-yl)acetamido)propanoic acid]",< 1000
29,"CNC(=O)CN1C(=O)C(F)(F)Oc2cc(F)c(-c3c(F)c(F)c(F)c(F)c3F)cc21 [Compound 82, N-methyl-2-(2,2,7-trifluoro-3-oxo-6-(perfluorophenyl)-2,3-dihydro-4H-benzo[b][1,4]oxazin-4-yl)acetamide]",< 1000
